US20110053773A1, “METHODS OF IMPROVING NUTRITIONAL VALUE OF PLANTS” (UNIVERSITY OF TENNESSEE RESEARCH FOUNDATION, priority 2009, published 2011)
Some of these results come from one statement about several compounds together.

Test system: sweet corn variety WH0809
Assay: Visual injury of sweet corn after POST herbicide inhibitors of photosynthesis (Example 2)
Assay type: in vivo
Details: by 14 DAT
Protocol: A field study was conducted at Greenback, TN to investigate POST applications of several herbicide inhibitors of photosynthesis for sweet corn safety and for changes in carbohydrate content in the kernels of sweet corn among treatments. Treatments included bentazon at 1120 and 2240 g ai/ha, linuron at 280 and 560 g ai/ha, metribuzin at 105 and 210 g ai/ha, and bromoxynil at 560 and 1120 g ai/ha. All treatments included a PRE application of a common residual corn herbicide in order to maintain weed free conditions. […] Sweet corn was harvested from the center two rows of each four row plot and weighed in the husk. Eight ears of corn were harvested from each plot and were pooled over replicates for analysis of key carbohydrates which included the sugars sucrose, fructose, glucose, maltose, and raffanose.

Row | SMILES | injury to sweet corn (1120 g ai/ha) | injury to sweet corn (2240 g ai/ha) | injury to sweet corn (105 g ai/ha)
1 | CC(C)N1C(=O)c2ccccc2NS1(=O)=O [BENTAZON, bentazon] | less than 20% | less than 20% | 
2 | CSc1nnc(C(C)(C)C)c(=O)n1N [METRIBUZIN, metribuzin] |  |  | less than 20%
